# Assay results reported in the supplement of paper PMC10338343.
# ± gives the standard deviation. The list shows a part of the results, in another mix than the full data. The uncertainty is large for many entries. This is one part of the list.
# Key:
# [1] = system: MILI (PIWIL2) piRISC loaded with L1MC piRNA (26 nt); assay: pre-steady-state target cleavage rate (min^-1); higher = faster piRNA-guided slicing of the target; conditions: guide: L1MC piRNA 5'p-UAACUAAAUACUAUGCAAGCUGUAGG
# Method in brief: (§1)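 With or without 500 nM GTSF1 partner protein, 1 nM active affinity-purified piRISC carrying one synthetic guide was mixed with 0.1 nM transcribed, DNA-blocked target RNA library in HEPES–potassium acetate buffer at 33 °C for 0–8 or 0–960 min. Uncleaved targets were sequenced and normalised to depth and to weakly complementary targets, three trials were pooled, and k3 was capped at 0.0001 min^-1. The pre-steady-state cleavage rate came from a burst-and-steady-state fit.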
# [2] = system: MIWI (PIWIL1) piRISC loaded with L1MC piRNA (30 nt); assay: as above; conditions: guide: L1MC piRNA 5'p-UAACUAAAUACUAUGCAAGCUGUAGGUCCU
# Method in brief: as §1
# [3] = system: EfPiwi piRISC loaded with L1MC piRNA (26 nt); assay: pre-steady-state target cleavage rate (min^-1); guide: L1MC piRNA 5'p-UAACUAAAUACUAUGCAAGCUGUAGG; MIWI and MILI are mouse PIWI proteins and EfPiwi is from a freshwater sponge; tags in brackets are library labels; higher = faster piRNA-guided slicing of the target
# Method in brief: as §1
# [4] = auxiliary factor: 500 nM mouse GTSF1
# [5] = auxiliary factor: none (no GTSF1)
# [6] = auxiliary factor: 500 nM Ephydatia muelleri Gtsf1
# [7] = auxiliary factor: none (no Gtsf1)
Sequence,"pre-steady-state target cleavage rate [1, 4]","pre-steady-state target cleavage rate [1, 5]","pre-steady-state target cleavage rate [2, 5]","pre-steady-state target cleavage rate [3, 6]","pre-steady-state target cleavage rate [3, 7]","pre-steady-state target cleavage rate [2, 4]"
UCCUGGAACAGCUUGCAUACAAUUUAGUUA,0.0027 ± 0.0046,0.00171 ± 0.004,0.00257 ± 0.0027,0.00126 ± 0.0032,0.000682 ± 0.013,–
UCCUGGAACAGCUUGCAUAGUAUUUUCAAA,0.0774 ± 0.018,0.000954 ± 0.005,0.00203 ± 0.0035,0.00233 ± 0.0023,0.000301 ± 0.019,–
UCCUGGAUGUCGAAGCAUAGUAGUUAGUUA,0.00345 ± 0.0035,0.00138 ± 0.0042,0.000761 ± 0.007,0.00117 ± 0.0054,0.000439 ± 0.014,–
UCCUGGAUGUCGUUGCAAAGUAAUUAGUUA,0.00144 ± 0.0073,0.000922 ± 0.0072,0.000162 ± 0.019,0.00126 ± 0.009,0.000494 ± 0.016,–
UCCUCCUACAGCUUGCAAUCUAUUUACAAA,0.0157 ± 0.0069,0.000177 ± 0.015,0.000257 ± 0.014,0.000611 ± 0.007,0.000216 ± 0.027,–
UCCUGGUACAGCUACGAUAGUAUUUAGUAA,0.183 ± 0.034,0.00154 ± 0.0039,0.00102 ± 0.0058,0.00163 ± 0.0055,0.00038 ± 0.021,–
UCCUGGAUGUCGAUGCUAUGUAUUUAGUUA,0.000508 ± 0.014,0.000498 ± 0.0091,0.000682 ± 0.0097,0.000154 ± 0.023,0.000238 ± 0.021,–
UCCUGGAUGUCGAUGCAAGUAUUUAGUUA,0.00124 ± 0.006,0.000913 ± 0.0053,0.00178 ± 0.0048,0.000747 ± 0.0084,< 0.0001,–
UCCUGGAUGUCGAUGCUAGUAUUUAGUUA,0.000871 ± 0.0073,0.000642 ± 0.0079,0.000763 ± 0.0056,0.000735 ± 0.0049,0.000129 ± 0.045,–
UCCUGGAUGUCGUUGCAUGGUAUUUAGUUA,0.0354 ± 0.01,0.00854 ± 0.0034,0.00222 ± 0.0051,0.000564 ± 0.0096,0.00168 ± 0.0066,–
UCCUGGAUGUCGAAGAAUAGUAUUUAGUUA,0.000917 ± 0.0073,0.000437 ± 0.012,0.000262 ± 0.012,0.000318 ± 0.0085,< 0.0001,–
UCCUGCUACAGCUUGCCAUAGUAUUUAGUUA,0.128 ± 0.015,0.00175 ± 0.005,0.000899 ± 0.0086,0.00382 ± 0.0023,0.000299 ± 0.021,–
UCCUCCUACAGCUUGCUAAGUAUUUUCAAA,0.0625 ± 0.017,0.000848 ± 0.0047,0.00027 ± 0.011,0.000916 ± 0.0073,0.000279 ± 0.019,–
UCCUGGAUGUCCUUGCAUAGCUAUUUAGUUA,0.00371 ± 0.0041,0.00105 ± 0.0062,0.00196 ± 0.0042,0.000231 ± 0.012,0.000131 ± 0.05,–
UCCUGGAACUCGUUGCAUAGUAUUUACAAA,0.0537 ± 0.013,0.00124 ± 0.0043,0.00225 ± 0.0032,0.000259 ± 0.013,0.000222 ± 0.028,–
UCCUGGAUGAGCUACCAUAGUAUUUAGUUA,0.101 ± 0.018,0.00301 ± 0.0025,0.000371 ± 0.0064,0.00141 ± 0.0042,0.000673 ± 0.012,–
UCCUGGAAGUCCUUGCAUAGUAUUUACAAA,0.0598 ± 0.018,0.001 ± 0.0066,0.00154 ± 0.0049,0.00121 ± 0.0048,0.000284 ± 0.019,–
UCCUGCUACAGCUUGCAUAGUAAAAAGAAA,0.0111 ± 0.0048,0.000722 ± 0.0092,0.000855 ± 0.0082,0.0018 ± 0.0024,0.00015 ± 0.031,–
UCCUGGAUGUCGUUGCAUAGUAUUAGUUA,0.00178 ± 0.0046,0.000608 ± 0.011,0.00107 ± 0.0051,0.000255 ± 0.021,0.00039 ± 0.021,–
UCCUCCUACAGCAUGCAUAGUAUUUUCAAA,0.138 ± 0.03,0.0013 ± 0.0046,0.00094 ± 0.0066,0.00326 ± 0.0034,0.000221 ± 0.019,–

Sequence,"pre-steady-state target cleavage rate [1, 4]","pre-steady-state target cleavage rate [1, 5]","pre-steady-state target cleavage rate [2, 5]","pre-steady-state target cleavage rate [3, 6]","pre-steady-state target cleavage rate [3, 7]","pre-steady-state target cleavage rate [2, 4]"
UCCUGGAUGUCCUUGCAUAGUAUUAACUUA,0.0115 ± 0.0049,0.00126 ± 0.0055,0.00119 ± 0.0066,0.000973 ± 0.0073,0.000196 ± 0.029,–
UCCUCCUACAGCUUGCAUAGUAUAAAGAAA,0.0951 ± 0.023,0.00148 ± 0.0037,0.000649 ± 0.0036,0.00289 ± 0.0018,0.000552 ± 0.014,–
UCCUGGAUGUGCAUGCAUACUAUUUAGUUA,0.0253 ± 0.0066,0.00586 ± 0.0023,0.00232 ± 0.0036,0.00117 ± 0.0047,0.000258 ± 0.027,–
UCCUGGAUGUCGUUACAUAGUAUUUAGUUA,0.105 ± 0.011,0.00442 ± 0.0022,0.000783 ± 0.0087,0.00184 ± 0.0056,< 0.0001,–
UCCUGGAUGUCCUAGCAUAGUAUUUAGAUA,0.0302 ± 0.007,0.00198 ± 0.0029,0.00149 ± 0.0041,0.00155 ± 0.0048,0.000525 ± 0.013,–
UCCUGGAUGUCGAAGCAUAGGAUUUAGUUA,0.000335 ± 0.01,0.00156 ± 0.0033,0.000554 ± 0.0064,0.000147 ± 0.024,< 0.0001,–
UCCUGGAUGUCCUAGCAUACUAUUUAGUUA,0.0115 ± 0.0063,0.00175 ± 0.0035,0.00106 ± 0.0062,0.000679 ± 0.0048,0.000479 ± 0.012,–
UCCUCCUACAGGAAGCAUAGUAUUUACAAA,0.0698 ± 0.014,0.00022 ± 0.014,0.000543 ± 0.011,0.001 ± 0.0063,< 0.0001,–
UCCUGGAUGUCGUUGCUUUGUAUUUAGUUA,0.00191 ± 0.0058,0.00172 ± 0.0049,0.000697 ± 0.0097,0.000178 ± 0.029,0.000202 ± 0.04,–
UCCUGGUACAGCAUGCAUAGUAUUUACAAA,0.127 ± 0.033,0.00126 ± 0.005,0.00151 ± 0.0053,0.00193 ± 0.0023,0.00025 ± 0.034,–
UCCUGGAUGUCGAUGCAUAGUAUUUAGUUU [g2:g17:cont:t1U],0.09 ± 0.011,0.00618 ± 0.0021,0.00173 ± 0.0034,0.00213 ± 0.0035,0.000132 ± 0.028,–
UCCUGGAUGUCGUUGCAUAGUAUUAUCUUA,0.000948 ± 0.01,0.000121 ± 0.045,–,0.000235 ± 0.011,0.000491 ± 0.015,0.000279 ± 0.029
UCCUGGAUGUCCUUCGAUAGUAUUUAGUUA,0.00794 ± 0.0037,0.000989 ± 0.0052,0.0009 ± 0.005,0.000374 ± 0.007,< 0.0001,–
UCCUGCUACAGCUUGCAUAGUAAUUACAAA,0.0901 ± 0.029,0.000322 ± 0.012,0.000594 ± 0.015,0.00259 ± 0.0018,0.000246 ± 0.021,–
UCCUGGAUGUCGAUGCAUAGUAUUUAGUUC [g2:g17:cont:t1C],0.0657 ± 0.0091,0.00831 ± 0.0023,0.00199 ± 0.0042,0.000635 ± 0.0065,0.000319 ± 0.02,–
UCCUGCUAGUCCUUGCAUAGUAUUUACAAA,0.0056 ± 0.004,0.00051 ± 0.011,0.00106 ± 0.0047,0.00246 ± 0.0038,0.000286 ± 0.018,–
UCCUGGAUGUCGAUGCAUAGUAUUUAGUGUA,0.149 ± 0.045,0.00213 ± 0.004,0.00134 ± 0.0074,0.00205 ± 0.0045,0.000465 ± 0.022,–
UCCUGGAUGUCGAUGCAUAGUAUUUACAAA,0.0066 ± 0.0042,0.000537 ± 0.0078,0.00025 ± 0.017,0.000373 ± 0.0069,< 0.0001,–
UCCUGGUACAGGAAGCAUAGUAUUUAGUAA,0.167 ± 0.023,0.00332 ± 0.0019,0.00181 ± 0.0033,0.00265 ± 0.0028,0.000273 ± 0.019,–

# Part of the list above in a different format:
Sequence	pre-steady-state target cleavage rate [1, 4]	pre-steady-state target cleavage rate [1, 5]	pre-steady-state target cleavage rate [2, 5]	pre-steady-state target cleavage rate [3, 6]	pre-steady-state target cleavage rate [3, 7]	pre-steady-state target cleavage rate [2, 4]
UCCUGGAUGUCCUUGCAUAGUAUUAACUUA	0.0115 ± 0.0049	0.00126 ± 0.0055	0.00119 ± 0.0066	0.000973 ± 0.0073	0.000196 ± 0.029	–
UCCUCCUACAGCUUGCAUAGUAUAAAGAAA	0.0951 ± 0.023	0.00148 ± 0.0037	0.000649 ± 0.0036	0.00289 ± 0.0018	0.000552 ± 0.014	–
UCCUCCUACAGGAAGCAUAGUAUUUACAAA	0.0698 ± 0.014	0.00022 ± 0.014	0.000543 ± 0.011	0.001 ± 0.0063	< 0.0001	–
